According to patent US5973110A, “Cytotoxic T-lymphocyte antigen as cysteine protease inhibitor” (Bayer Corporation, priority 1995, dated 1999):
At least one peptide structure holds a part that was inferred or is arguable (an end, a ring closure or a residue). No end group written: not given here.

Chains of the proteins cited; added tags and fusions are not shown. Residues count along the entry.
UniProt P07711, 114-288 limits assumed: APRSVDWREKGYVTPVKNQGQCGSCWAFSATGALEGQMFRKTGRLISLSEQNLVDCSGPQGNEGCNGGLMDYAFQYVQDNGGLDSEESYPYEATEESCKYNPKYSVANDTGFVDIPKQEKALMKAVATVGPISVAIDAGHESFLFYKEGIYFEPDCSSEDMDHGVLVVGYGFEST
UniProt P07711, 292-333 limits assumed: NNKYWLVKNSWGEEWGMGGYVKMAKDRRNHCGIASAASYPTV

Biological target: human liver Cathepsin L (Homo sapiens, UniProt P07711)
Assay: Cathepsin L assay (fluorescence, Z-Phe-Arg-AMC hydrolysis)
Assay type: biochemical
Parameters: from tissue; b54 says 'human kidney cell cathepsins'
Settings: for inhibitory activity of the peptides (in words): summary in Example 7

| Sequence | inhibitory activity of the peptides (in words) | inhibition of Cathepsin L activity (in words) (at 1000 uM peptide) |
| --- | --- | --- |
| ENKKKIEAHNADYERGKTSFC [p089] | partial activity | – |
| SLDNEWKEWKTTFAKAYSLDEE [p118] | poor activity | no inhibition |
